The values that follow come from patent US20140357841A1 (Peking University Shenzhen Graduate School, priority 2013, published 2014).

The data set in a line: general procedure: peptide synthesis; CTC resin; HATU/DIEA (cyclisation). Conditions: cyclisation step, HPLC.

Consider Ac-cyclo(1,5)-monoS5AAAC-NH2, for which the “purity (crude or final not stated)” value is 10.7948%.
